According to paper doi:10.1101/2025.01.12.632577:

Biological target: GMPCPP-stabilized microtubules (pig brain tubulin), co-sedimentation assay (pig)
Assay: co-sedimentation

- binding: binds
B1: JPT2 (purified from E. coli) (protein, UniProt Q9H910-1 1-190)
chain: MFQVPDSEGGRAGSRAMKPPGGESSNLFGSPEEATPSSRPNRMASNIFGPTEEPQNIPKRTNPPGGKGSGIFDESTPVQTRQHLNPPGGKTSDIFGSPVTATSRLAHPNKPKDHVFLCEGEEPKSDLKAARSIPAGAEPGEKGSARKAGPAKEQEPMPTVDSHEPRLGPRPRSHNKVLNPPGGKSSISFY

Results are given in words; binding and its absence hold for the method and conditions named. Binding calls can cover weak binding; strength is not graded here.
